In PubChem BioAssay AID1347075 (National Center for Advancing Translational Sciences (NCATS), 2019):
In all, about 400,000 compounds went through this assay and about 5,500 (1.4%) were called active. Inconclusive means that the source gave no clear call. Such entries were picked first, then a sample of the others. Calls come from the whole dose curve; as a rule, active = well fitted cell-killing curve with a large enough effect; inconclusive = small, poorly fitted or top-dose-only effect, or effect the other way; inactive = flat fitted curve, though single readings scatter. Potencies beside an inconclusive call are fits to weak or partial responses and may not hold up.

experiment: qHTS assay for MDR1-selective chemotherapeutics: Primary screen using the parental adenocarcinoma cell KB-3-1; details: KB-3-1 viability, CellTiter-Glo ATP luminescence, 72 h; activity change, negative = cytotoxic: at 46.1 µM (top of the series); note: nearly all actives have a fitted effect of over 60% in size
Procedure, shortened: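 72 h, 37 °C compound treatment of KB-3-1 parental cells; CellTiter-Glo added, 10 min, luminescence read. Data corrected against DMSO-only plates and normalized before curve fitting.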
% is set by controls: 0 for no effect and ±100 for the full control effect; potency is the fitted concentration of half-maximal effect.

Compound | Potency | activity change, negative = cytotoxic
CN1/C(=C\C=C2C(=O)NC(=S)NC2=O)C(C)(C)c2ccccc21 | inconclusive: 16.4 µM [cytotoxic, single point] | –
Cc1cccc(C)c1-n1nnnc1C(c1cccc2ccccc12)N1CCC(n2c(=O)[nH]c3ccccc32)CC1 (stereo not drawn) | inconclusive: 29.1 µM [cytotoxic, single point] | –
Cc1nc(Cl)sc1C(=O)Nc1ccc2ccccc2c1 | inactive | –
O=[N+]([O-])c1ccc(N2CC2)c([N+](=O)[O-])c1 | inconclusive: 20.6 µM [rising, single point] | –
C[C@]12CCC(=O)C=C1CCC1C2CC[C@@]2(C)C1CC[C@@H]2O (stereo partly drawn) | active: 4.61 µM | –
CC1CCC[C@H](O)CCCCCc2cc(O)cc(O)c2C(=O)O1 (stereo partly drawn) | inactive | –
O=c1[nH]c(=O)n(CCC2=CCCCC2)c(O)c1/C=N/Nc1cccc2ccccc12 | inconclusive: 16.4 µM [cytotoxic, single point] | –
CC(=O)O[C@@]12CO[C@@H]1C[C@H](O)[C@@]1(C)C(=O)[C@H](O)C3=C(C)[C@@H](O)C[C@@](O)([C@@H](OC(=O)c4ccccc4)C12)C3(C)C (stereo partly drawn) | active: 11.6 µM | –
O=C(Nc1ccncc1)c1cccn(Cc2ccccc2)c1=O | inconclusive: 1.3 µM [cytotoxic, full curve] | –
CC1OC(OC2C(O)CC(OC3C(O)CC(OC4CCC5(C)C(CCC6C5CCC5(C)C(C7=CC(=O)OC7)C(O)CC65O)C4)OC3C)OC2C)CC(O)C1O (stereo not drawn) | active: 0.184 µM | –
COc1cccc(NC(=O)c2cccn(Cc3ccccc3C)c2=O)c1 | inconclusive: 25.9 µM [cytotoxic, single point] | –
COC(=O)C1=C(c2ccc(F)cc2OCc2ccccc2)C[C@@H]2CC[C@H]1N2C(=O)NC1Cc2ccccc2C1 | inconclusive: 29.1 µM [cytotoxic, single point] | –
N#CC1=C(N)Oc2c(c(=O)sc3ccccc23)C1c1cccnc1 (stereo not drawn) | inconclusive: 4.61 µM [cytotoxic, full curve] | –
COc1cc(C=C2C(=O)NC(=O)NC2=O)ccc1OCc1ccc([N+](=O)[O-])cc1 | inactive | –
Cc1ccc(-c2cc(-c3ccc(C)cc3)[n+](-c3ccccc3)c(-c3ccc(C)cc3)c2)cc1 | active: 5.8 µM | –
C[C@]12CC[C@H](O)C[C@H]1CCC1C2CC[C@]2(C)[C@@H](c3ccc(=O)oc3)C[C@H]3O[C@]132 (stereo partly drawn) | inconclusive: 5.8 µM [cytotoxic, full curve, poor fit] | –
CN1Cc2cnnn2-c2ccccc2C1C#N (stereo not drawn) | inconclusive: 25.9 µM [cytotoxic, single point] | –
COc1ccc(C(c2nnnn2Cc2ccccc2)N2CCC(n3c(=O)[nH]c4ccccc43)CC2)cc1 (stereo not drawn) | inconclusive: 29.1 µM [cytotoxic, single point] | –
Cn1cc([N+](=O)[O-])c(C(=O)Nc2ccc3c(C(F)(F)F)cc(=O)oc3c2)n1 | inconclusive: 29.1 µM [cytotoxic, single point] | –
COC(=O)C1=C(c2c(C)noc2C)C[C@@H]2CC[C@H]1N2C(=O)NC1Cc2ccccc2C1 | inactive | –
CC1CC(C)CC(C)C(O)C(C#N)=CC=CCC(C2CCCC2C(=O)O)OC(=O)CC(O)C(C)C1 (stereo not drawn) | active: 1.16 µM | –
O=P(Oc1ccccc1)(Oc1ccccc1)C(Nc1ccccc1)c1ccccc1 (stereo not drawn) | inconclusive: 29.1 µM [cytotoxic, single point] | –
CC(C)N1C(=O)/C(=C/C=C/c2ccco2)C(=O)N(Cc2ccco2)C1=O | inconclusive: 16.4 µM [cytotoxic, single point] | –

Compound | Potency | activity change, negative = cytotoxic
C[C@H]1O[C@@H](O[C@H]2[C@@H](O)C[C@@H](O[C@H]3[C@@H](O)C[C@H](O[C@H]4CC[C@@]5(C)[C@H](CC[C@@H]6[C@@H]5CC[C@]5(C)[C@@H](C7=CC(=O)OC7)CC[C@]65O)C4)O[C@@H]3C)O[C@@H]2C)C[C@H](O)[C@@H]1O | active: 0.0103 µM | –
Cn1c(O)c(C=NCCN2CCOCC2)c(=O)[nH]c1=S | inactive | –
CC(N)C(=O)NC1C2C(=C(O)CC(O)C2O)C(=O)OC1(C)C(Cl)Cl (stereo not drawn) | active: 2.06 µM | –
O=C1CCCN1CC#CCN1CCCC1 | inconclusive: 11.6 µM [rising, single point] | –
O=[N+]([O-])c1nccn1CC(O)CN1CC1 (stereo not drawn) | inactive | –
CCOC(=O)[C@]12Cc3cc(OC)ccc3[C@H]1N(C1CCCCC1)C(=O)c1ccccc12 | active: 3.26 µM | –
COc1ccc(-n2c(O)c(/C=C3\C=Nc4ccc(Br)cc43)c(=O)[nH]c2=O)c(OC)c1 | inconclusive: 20.6 µM [cytotoxic, single point] | –
CC(=O)OC1(Cc2ccccc2)CN2CCC1c1ccccc12 (stereo not drawn) | inconclusive: 23.1 µM [cytotoxic, single point] | –
COC(=O)C1=C(c2cc3ccccc3s2)C[C@@H]2CC[C@H]1N2C(=O)NCCCOC(C)C | inactive | –
CCCCCCn1c(N)c(C(=O)NCCN2CCOCC2)c2nc3ccccc3nc21 | inconclusive: 23.1 µM [cytotoxic, single point] | –
CC(C)C(=O)c1cn(Cc2ccc(C#N)cc2)c2ccccc12 | inconclusive: 29.1 µM [cytotoxic, single point] | –
CCOC(=O)[C@]12Cc3cc(OC)ccc3[C@H]1N(Cc1ccccc1)C(=O)c1cc(F)c(F)cc12 | inconclusive: 29.1 µM [cytotoxic, single point] | –
C[C@H]1CCC[C@H](O)CCCCCc2cc(O)cc(O)c2C(=O)O1 | inconclusive: 23.1 µM [cytotoxic, single point] | –
NC(Cc1cc(O)c(O)cc1O)C(=O)O (stereo not drawn) | inconclusive: 5.8 µM [rising, full curve] | –
COc1ccc(-n2nnnc2C(c2ccccc2)N2CCC(n3c(=O)[nH]c4ccccc43)CC2)cc1 (stereo not drawn) | inconclusive: 29.1 µM [cytotoxic, single point] | –
Cn1ncnc2c(=O)n(C)c(=O)nc1-2 | active: 0.651 µM | –
CN(C)C1(c2nnnn2CCOC(=O)Nc2ccc(Cl)cc2)CCCCC1 | inconclusive: 16.4 µM [cytotoxic, single point] | –
N#CC1=C(N)Oc2c(c(=O)oc3ccccc23)C1c1cccnc1 (stereo not drawn) | inconclusive: 18.4 µM [rising, partial curve, poor fit] | –
CC(N)Cc1c[nH]c2ccc(O)cc12 (stereo not drawn) | inactive | –
O=c1c2ccccc2nc(-c2ccccc2)n1-c1ccccc1 | inactive | –
CCn1c(O)c(/C=N/NC(=O)c2ccccc2)c(=O)n(CC)c1=S | inconclusive: 29.1 µM [cytotoxic, single point] | –
C=CCn1c(O)c(/C(C)=N/NC(=S)Nc2ccccc2)c(=O)[nH]c1=O | inconclusive: 16.4 µM [rising, partial curve, poor fit] | –
C=C1N2CCC(CC2)C1(O)c1ccc(C)cc1 (stereo not drawn) | inactive | –

Compound | Potency | activity change, negative = cytotoxic
CC(C)Cc1nnc(NC(=O)CCC(=O)N2CCC3(CC2)OCCO3)s1 | inactive | –
COc1cc(/C=C/c2nc3ccccc3c(=O)n2-c2ccccc2O)ccc1O | inconclusive: 29.1 µM [cytotoxic, single point] | –
C/C(=C\c1ccc(N(C)C)cc1)[N+](=O)[O-] | inconclusive: 25.9 µM [cytotoxic, single point] | –
O=C1NC(=O)C(=Cc2cn(CCOc3ccc4c(c3)OCO4)c3ccccc23)C(=O)N1 | active: 20.6 µM | –
C[n+]1c2ccccc2nc2ccc(NCCO)cc21 | inconclusive: 20.6 µM [cytotoxic, single point] | –
COCCCn1c(N)c(C(=O)NCc2ccco2)c2nc3ccccc3nc21 | inactive | –
C/C(=N\N(C)c1ccccc1)c1c(O)[nH]c(=O)[nH]c1=O | inconclusive: 20.6 µM [cytotoxic, single point] | –
CC(C)(C)c1ccc(O)c(CN2CCN(c3ccccc3)CC2)c1 | inconclusive: 29.1 µM [cytotoxic, partial curve, poor fit] | –
S=C(NCCc1ccccc1)N1Cc2ccc(Br)cc2-n2nncc2C1 | inconclusive: 29.1 µM [cytotoxic, single point] | –
O=C1NCN(c2ccccc2)C12CCN(C(CCc1ccccc1)c1nnnn1C1CCCCC1)CC2 (stereo not drawn) | inconclusive: 29.1 µM [cytotoxic, single point] | –
O=C(Nc1ccc2c(c1)OCO2)c1cccn(Cc2cccc([N+](=O)[O-])c2)c1=O | inactive | –
CCOCCc1c(O)[nH]c(=S)[nH]c1=O | inconclusive: 29.1 µM [rising, single point] | –
Cc1cccc(CC(c2cccc(C)c2)N(C)C)c1 (stereo not drawn) | inactive | –
CC(C)N1CC=C(c2c[nH]c3ccccc23)CC1 | active: 2.06 µM | –
CN(C)c1ccc(N=Nc2ccccc2)cc1 | inconclusive: 20.6 µM [rising, partial curve, poor fit] | –
CCN(CC)c1ccc(CNCCc2ccccc2F)cc1 | inconclusive: 16.4 µM [cytotoxic, single point] | –
Cc1ccccc1OCC(=O)N1CCN(CCc2ccccn2)CC1 | inconclusive: 23.1 µM [rising, single point] | –
COC(=O)C1=C(c2ccccc2OCc2ccccc2)C[C@@H]2CC[C@H]1N2C(=O)NCc1ccc([N+](=O)[O-])cc1 | inconclusive: 25.9 µM [cytotoxic, single point] | –
Cc1cc(NC(=O)CCC(=O)N2CCC3(CC2)OCCO3)no1 | inactive | –
C=CCn1c(O)c(/C=N/N2CCCCC2)c(=O)[nH]c1=O | – | inconclusive: -0.547%
COC(=O)C1=C(c2cccc(C#N)c2)C[C@@H]2CC[C@H]1N2C(=O)NCCO | inactive | –
COC(=O)C1=C(c2ccccc2OCc2ccccc2)C[C@@H]2CC[C@H]1N2C(=O)NCc1ccc(Br)cc1 | inconclusive: 23.1 µM [cytotoxic, single point] | –

Some of the entries above, set out differently.

| Compound | Potency | activity change, negative = cytotoxic |
| --- | --- | --- |
| COc1cc(/C=C/c2nc3ccccc3c(=O)n2-c2ccccc2O)ccc1O | inconclusive: 29.1 µM [cytotoxic, single point] | – |
| C/C(=C\c1ccc(N(C)C)cc1)[N+](=O)[O-] | inconclusive: 25.9 µM [cytotoxic, single point] | – |
| O=C1NC(=O)C(=Cc2cn(CCOc3ccc4c(c3)OCO4)c3ccccc23)C(=O)N1 | active: 20.6 µM | – |
| C[n+]1c2ccccc2nc2ccc(NCCO)cc21 | inconclusive: 20.6 µM [cytotoxic, single point] | – |
| COCCCn1c(N)c(C(=O)NCc2ccco2)c2nc3ccccc3nc21 | inactive | – |
| C/C(=N\N(C)c1ccccc1)c1c(O)[nH]c(=O)[nH]c1=O | inconclusive: 20.6 µM [cytotoxic, single point] | – |
| CC(C)(C)c1ccc(O)c(CN2CCN(c3ccccc3)CC2)c1 | inconclusive: 29.1 µM [cytotoxic, partial curve, poor fit] | – |
| S=C(NCCc1ccccc1)N1Cc2ccc(Br)cc2-n2nncc2C1 | inconclusive: 29.1 µM [cytotoxic, single point] | – |
| O=C1NCN(c2ccccc2)C12CCN(C(CCc1ccccc1)c1nnnn1C1CCCCC1)CC2 (stereo not drawn) | inconclusive: 29.1 µM [cytotoxic, single point] | – |
| O=C(Nc1ccc2c(c1)OCO2)c1cccn(Cc2cccc([N+](=O)[O-])c2)c1=O | inactive | – |
| CCOCCc1c(O)[nH]c(=S)[nH]c1=O | inconclusive: 29.1 µM [rising, single point] | – |
| Cc1cccc(CC(c2cccc(C)c2)N(C)C)c1 (stereo not drawn) | inactive | – |
| CC(C)N1CC=C(c2c[nH]c3ccccc23)CC1 | active: 2.06 µM | – |
| CN(C)c1ccc(N=Nc2ccccc2)cc1 | inconclusive: 20.6 µM [rising, partial curve, poor fit] | – |
| CCN(CC)c1ccc(CNCCc2ccccc2F)cc1 | inconclusive: 16.4 µM [cytotoxic, single point] | – |
| Cc1ccccc1OCC(=O)N1CCN(CCc2ccccn2)CC1 | inconclusive: 23.1 µM [rising, single point] | – |
| COC(=O)C1=C(c2ccccc2OCc2ccccc2)C[C@@H]2CC[C@H]1N2C(=O)NCc1ccc([N+](=O)[O-])cc1 | inconclusive: 25.9 µM [cytotoxic, single point] | – |
| Cc1cc(NC(=O)CCC(=O)N2CCC3(CC2)OCCO3)no1 | inactive | – |
| C=CCn1c(O)c(/C=N/N2CCCCC2)c(=O)[nH]c1=O | – | inconclusive: -0.547% |
| COC(=O)C1=C(c2cccc(C#N)c2)C[C@@H]2CC[C@H]1N2C(=O)NCCO | inactive | – |
